From paper doi:10.1101/2022.11.09.514853 (bioRxiv, 2022)
No constants are given. Whether binding was seen depends on the method and setting. For part of these data: Binding seen in cells or lysates may run through a third protein. Some results given as binding are weak or reduced against the parent protein; the word gives no strength.

Chains of the proteins cited; added tags and fusions are not shown. Lines headed by an entry give the natural chain unless they say otherwise; changes in a name come on top. Residues count along the entry.
UniProt O15399, whole entry, looked up, stated change not applied: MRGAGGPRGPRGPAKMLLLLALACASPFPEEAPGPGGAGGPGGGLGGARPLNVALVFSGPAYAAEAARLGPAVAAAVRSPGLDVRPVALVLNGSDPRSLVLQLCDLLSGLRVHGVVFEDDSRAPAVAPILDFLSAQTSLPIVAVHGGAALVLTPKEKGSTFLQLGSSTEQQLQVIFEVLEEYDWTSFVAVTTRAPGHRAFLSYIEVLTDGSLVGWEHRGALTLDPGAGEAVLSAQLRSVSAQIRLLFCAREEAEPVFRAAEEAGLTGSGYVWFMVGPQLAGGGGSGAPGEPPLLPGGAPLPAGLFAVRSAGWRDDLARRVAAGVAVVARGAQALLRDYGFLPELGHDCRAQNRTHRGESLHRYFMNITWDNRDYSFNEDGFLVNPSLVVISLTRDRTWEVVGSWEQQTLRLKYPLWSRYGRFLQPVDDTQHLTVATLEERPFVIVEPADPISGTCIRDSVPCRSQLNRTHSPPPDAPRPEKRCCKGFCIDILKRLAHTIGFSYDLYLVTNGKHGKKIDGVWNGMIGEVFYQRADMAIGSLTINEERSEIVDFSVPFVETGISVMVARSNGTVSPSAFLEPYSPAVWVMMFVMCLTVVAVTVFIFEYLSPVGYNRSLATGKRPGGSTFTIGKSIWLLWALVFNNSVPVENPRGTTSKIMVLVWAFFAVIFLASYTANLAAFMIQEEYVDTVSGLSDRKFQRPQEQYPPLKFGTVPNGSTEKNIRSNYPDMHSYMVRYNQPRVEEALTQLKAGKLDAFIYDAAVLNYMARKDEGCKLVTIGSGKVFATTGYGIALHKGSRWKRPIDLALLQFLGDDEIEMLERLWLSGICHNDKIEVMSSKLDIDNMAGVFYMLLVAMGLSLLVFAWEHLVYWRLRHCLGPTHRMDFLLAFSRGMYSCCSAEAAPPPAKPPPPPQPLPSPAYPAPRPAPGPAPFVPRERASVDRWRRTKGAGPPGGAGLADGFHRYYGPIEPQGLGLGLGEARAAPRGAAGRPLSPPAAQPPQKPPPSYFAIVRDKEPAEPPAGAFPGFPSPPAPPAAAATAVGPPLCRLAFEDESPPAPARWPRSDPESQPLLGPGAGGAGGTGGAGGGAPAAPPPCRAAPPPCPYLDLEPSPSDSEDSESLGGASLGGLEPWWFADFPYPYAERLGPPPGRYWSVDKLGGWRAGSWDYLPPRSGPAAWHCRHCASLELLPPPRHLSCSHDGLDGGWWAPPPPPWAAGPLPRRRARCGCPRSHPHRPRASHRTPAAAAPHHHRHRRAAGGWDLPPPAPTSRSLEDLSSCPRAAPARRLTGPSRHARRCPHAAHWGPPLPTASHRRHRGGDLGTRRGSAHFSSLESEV
UniProt Q00961, 20-839: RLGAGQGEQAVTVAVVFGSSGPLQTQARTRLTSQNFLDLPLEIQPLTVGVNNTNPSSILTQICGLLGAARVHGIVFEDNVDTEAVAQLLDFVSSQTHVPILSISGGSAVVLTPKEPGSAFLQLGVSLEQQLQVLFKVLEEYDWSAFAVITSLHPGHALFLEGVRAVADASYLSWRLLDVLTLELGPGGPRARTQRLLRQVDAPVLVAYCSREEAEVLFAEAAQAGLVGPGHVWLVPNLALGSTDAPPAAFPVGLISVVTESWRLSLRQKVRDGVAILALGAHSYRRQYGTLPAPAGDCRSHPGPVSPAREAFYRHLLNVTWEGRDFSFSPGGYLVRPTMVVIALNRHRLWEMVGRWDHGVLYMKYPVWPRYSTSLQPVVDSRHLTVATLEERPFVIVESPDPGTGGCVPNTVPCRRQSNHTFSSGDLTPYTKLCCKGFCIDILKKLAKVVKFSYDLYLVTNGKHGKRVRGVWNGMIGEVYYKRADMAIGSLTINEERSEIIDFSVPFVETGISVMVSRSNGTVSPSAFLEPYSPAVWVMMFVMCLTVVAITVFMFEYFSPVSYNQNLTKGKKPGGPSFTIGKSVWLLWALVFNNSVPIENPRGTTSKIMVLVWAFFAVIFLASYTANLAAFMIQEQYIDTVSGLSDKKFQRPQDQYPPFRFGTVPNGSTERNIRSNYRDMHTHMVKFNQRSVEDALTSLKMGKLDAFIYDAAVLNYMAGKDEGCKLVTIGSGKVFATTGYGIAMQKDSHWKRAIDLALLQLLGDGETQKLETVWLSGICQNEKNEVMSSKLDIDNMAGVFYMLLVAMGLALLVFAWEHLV

Key:
[1] = target: human GluN2D S238C, full length (human) (UniProt O15399); experiment: cross-linking
[2] = target: human GluN1-1a E698C, full length (human) (UniProt Q05586); experiment: cross-linking
[3] = target: human GluN2D, C-terminal domain truncated (M1-P879), Strep-tag II (human) (UniProt O15399); experiment: cryo-EM structure
[4] = target: rat GluN2C (M1-V839), GFP and Strep-tag II, of the N1-N2A-N2C tri-receptor (rat) (UniProt Q00961); experiment: pull-down

Row | Substance | binding [3] | also measured
1 | human GluN2D S238C, full length (from UniProt O15399 28-1336) (receptor) | – | binding [1]: binds
2 | human GluN1-1a E698C, full length (from UniProt Q05586-1 19-938) (receptor) | – | binding [2]: binds
3 | human GluN1-1a, C-terminal domain truncated (M1-Q847) (from UniProt Q05586-1 19-847) (receptor) | binds | –
4 | human GluN1-1b, C-terminal domain truncated (M1-Q868) (from UniProt Q05586-6 19-868) (receptor) | binds | –
5 | human GluN1-1a E698C, C-terminal domain deleted (from UniProt Q05586-1 19-847) (receptor) | binds | –
6 | rat GluN2A (M1-F841), GFP and 6×His tag, of the N1-N2A-N2C tri-receptor (from UniProt Q00959 23-841) | – | binding [4]: binds
